{"source": "patent US5589364A", "about": "“Recombinant production of biologically active peptides and proteins” (priority 1994, dated 1996)", "key": {"[1]": {"test_system": "reference strains Staphylococcus aureus ATCC 29213, Escherichia coli ATCC 25922, and Pseudomonas aeruginosa ATCC 27853", "test": "Antimicrobial susceptibility assay as in Example 1, organism not specified per result", "assay_type": "cell-based", "settings": "unamidated peptides; conclusion from MIC values", "experimental": "(§1) Antibacterial susceptibility testing was performed using a microdilution broth assay according to the guidelines of the National Committee for Clinical Laboratory Standards (NCCLS) Document M7-A2 (NCCLS, 1990). For preparation of peptide stock solutions, the peptide powder as an acetate salt was weighed on an analytical balance and transferred to a polypropylene tube. Stock solutions were prepared at a concentration of 1.024 mg/mL (or, in the case of natural polyphemusin, 1.00 mg/mL) by dissolving the powder in autoclaved (121° C., 20 psi, 20 minutes) deionized water. […]\nThe bacteria used in the antimicrobial susceptibility testing are the quality control reference strains Staphylococcus aureus ATCC 29213, Escherichia coli ATCC 25922, and Pseudomonas aeruginosa ATCC 27853. Inoculum for each reference strain was prepared by taking a sample of bacteria from a 16-20 hour plate culture and inoculating into 5 mL of MHB (BBL® catalog number 95834) to an absorbance reading of approximately 0.02 at 600 nm (A600) on a Beckman DU®-64 spectrophotometer. The culture was incubated at 35°-37° C. with shaking in a New Brunswick incubator shaker (Model G25) and the growth monitored spectrophotometrically until it reached A600 of approximately 0.6; this absorbance represented approximately 1×10^8 colony-forming units per milliliter (CFUs/mL). […]\n(§2) This value was determined using the unaided eye. […]"}, "[2]": {"test_system": "E. coli ATCC strain 25922", "test": "Bacterial growth inhibition assay, aliquots spotted onto a bacterial lawn", "assay_type": "cell-based, Escherichia coli", "settings": "HPLC or G-25 fractions of cleaved MBP fusion protein, concentration not given", "experimental": "Small aliquots of recombinant MSI-556 and other HPLC fractions from the CNBr digest of MBP-MSI-556 fusion protein were spotted onto a lawn of E. coli ATCC strain 25922 grown on a half-strength trypticase soy broth agar plate containing 50 mM sodium fluoride."}, "[3]": {"test_system": "Escherichia coli ATCC 25922", "test": "Microdilution broth antibacterial susceptibility assay (NCCLS M7-A2), MIC", "assay_type": "cell-based", "settings": "lowest concentration completely inhibiting growth; MHB, 16-20 hours, 35-37 C; tested in duplicate", "experimental": "as §1, with “water. The peptide solution was used immediately, stored for up to ten days at 4° C., or stored longterm at -70° C. in 1 mL aliquotes in polypropylene cryovials. Mueller-Hinton broth (MHB)(BBL® catalog number 11443) was used in microtiter plates for diluting peptide stock solutions and for diluting each bacterial inoculum.” for “water.”\n(§3) The bacteria used in the antimicrobial susceptibility testing are the quality control reference strains Staphylococcus aureus ATCC 29213, Escherichia coli ATCC 25922, and Pseudomonas aeruginosa ATCC 27853. Inoculum for each reference strain was prepared by taking a sample of bacteria from a 16-20 hour plate culture and inoculating into 5 mL of MHB (BBL® catalog number 95834) to an absorbance reading of approximately 0.02 at 600 nm (A600) on a Beckman DU®-64 spectrophotometer. The culture was incubated at 35°-37° C. with shaking in a New Brunswick incubator shaker (Model G25) and the growth monitored spectrophotometrically until it reached A600 of approximately 0.6; this absorbance represented approximately 1×10^8 colony-forming units per milliliter (CFUs/mL).\n(§4) The culture was then diluted to approximately 1×10^6 CFUs/mL in autoclaved MHB (BBL® catalog number 11443) to produce the parent inoculum. A sample of the parent inoculating culture was diluted in 3 mM phosphate buffer (pH 7.2) through a series of 1:10 dilutions and the 10^-4 and 10^-5 dilutions were plated, incubated overnight at 35°-37° C., and counted the next day to verify inoculum density. […]\nas §2"}, "[4]": {"test_system": "Pseudomonas aeruginosa ATCC 27853", "test": "Microdilution broth antibacterial susceptibility assay (NCCLS M7-A2), MIC", "assay_type": "cell-based", "settings": "lowest concentration completely inhibiting growth; MHB, 16-20 hours, 35-37 C; tested in duplicate", "experimental": "as §1, with “water. The peptide solution was used immediately, stored for up to ten days at 4° C., or stored longterm at -70° C. in 1 mL aliquotes in polypropylene cryovials. Mueller-Hinton broth (MHB)(BBL® catalog number 11443) was used in microtiter plates for diluting peptide stock solutions and for diluting each bacterial inoculum.” for “water.”\nas §3, §4, §2"}, "[5]": {"test_system": "Staphylococcus aureus ATCC 29213", "test": "Microdilution broth antibacterial susceptibility assay (NCCLS M7-A2), MIC", "assay_type": "cell-based", "settings": "lowest concentration completely inhibiting growth; MHB, 16-20 hours, 35-37 C; tested in duplicate", "experimental": "as §1, with “water. The peptide solution was used immediately, stored for up to ten days at 4° C., or stored longterm at -70° C. in 1 mL aliquotes in polypropylene cryovials. Mueller-Hinton broth (MHB)(BBL® catalog number 11443) was used in microtiter plates for diluting peptide stock solutions and for diluting each bacterial inoculum.” for “water.”\nas §3, §4, §2"}}, "note": "Not every detail of the peptide structures is certain; ends, links or a residue may be inferred. Ends that are not written are not given here."}
{"sequence": "GIGKFLKKAKKFGKAFVKILKK [MSI-344]", "values": [{"measurement": "Spectrum of antibacterial activity (summary of Table I)", "setting": "[1]", "result": "broadly active against both gram-negative and gram-positive human pathogenic bacteria"}, {"measurement": "Bacterial growth inhibition bioassay of isolated fractions", "setting": "[2]", "result": "bioactive"}, {"measurement": "Bacterial growth inhibition bioassay of isolated fractions", "setting": "[2]; listed as recombinant MSI-344", "result": "antimicrobial activity"}, {"measurement": "Minimum Inhibitory Concentration, Test Organism: E. coli", "setting": "[3]", "result": "2 to 8", "unit": "µg/mL"}, {"measurement": "Minimum Inhibitory Concentration, Test Organism: Pseudo. aeruginosa", "setting": "[4]", "result": 8, "unit": "µg/mL"}, {"measurement": "Minimum Inhibitory Concentration, Test Organism: Staph. aureus", "setting": "[5]", "result": 64, "unit": "µg/mL"}]}
